Experimental data from publication PMC4917822 (Scientific Reports, 2016).
Where a sequence shows no end group, the ends are not given. The same purity stands for every peptide and may come from a single statement.

Assay: general procedure: Fmoc solid-phase peptide synthesis; H-Rink Amide-ChemMatrix; HBTU/HOBt/DIEA
Details: RP-HPLC

Row | Substance | final HPLC purity (whole synthesis) | final HPLC purity (conjugation step)
1 | CKLAKLAK | >98% | –
2 | CKLAKLAKKLAKLAK | >98% | –
3 | GGEQNPIYWARYADWLFTTPLLLLDLALLVDADEGTCG | >98% | –
4 | pHLIP(WT)-(KLAKLAK)2 | – | >98%
5 | pHLIP(WT)-KLAKLAK | – | >98%
